For at least one compound, name, drawing or mass did not settle the structure.
Columns and labels:
[1] = biological target: T1, active dimeric form of soluble recombinant hPSMA (Homo sapiens, UniProt Q04609); experiment: Competition binding assay with 3H-ZJ24 on recombinant PSMA; conditions: read-out: EC50 for binding to PSMA; 0.5 μg recombinant PSMA, 12 nM 3H-ZJ24, 30 min, 37° C
T1 construct: Recombinant protein of the extracellular domain of PSMA can also exist in readily inter-convertible dimer-monomer forms
Method: Binding and activity of the disclosed 2-5A ligand towards the active dimeric form of soluble recombinant hPSMA was compared with methylated parent ligand Cys-C(O)-Glu ZJ24. The binding assay examines the ability of a novel compound to compete for binding with radio-labeled ZJ24. Different final concentrations of the inhibitor can be incubated in the presence of ZJ24 and the concentration required to inhibit 50% of binding is determined (the EC50). Briefly, 0.5 μg of recombinant PSMA was incubated with the ligand to be tested at different concentrations and 12 nM of ^3H-ZJ24 in a total volume of 100 μL for 30 min at 37° C. The mixture was centrifuged through a 50 kDa cut-off membrane. Finally, 4 mL of biodegradable counting cocktail Bio-Safe II was added, and radioactivity was counted.

Chains of the proteins cited; added tags and fusions are not shown. Residues count along the entry.
UniProt Q04609, 44-750 limits assumed: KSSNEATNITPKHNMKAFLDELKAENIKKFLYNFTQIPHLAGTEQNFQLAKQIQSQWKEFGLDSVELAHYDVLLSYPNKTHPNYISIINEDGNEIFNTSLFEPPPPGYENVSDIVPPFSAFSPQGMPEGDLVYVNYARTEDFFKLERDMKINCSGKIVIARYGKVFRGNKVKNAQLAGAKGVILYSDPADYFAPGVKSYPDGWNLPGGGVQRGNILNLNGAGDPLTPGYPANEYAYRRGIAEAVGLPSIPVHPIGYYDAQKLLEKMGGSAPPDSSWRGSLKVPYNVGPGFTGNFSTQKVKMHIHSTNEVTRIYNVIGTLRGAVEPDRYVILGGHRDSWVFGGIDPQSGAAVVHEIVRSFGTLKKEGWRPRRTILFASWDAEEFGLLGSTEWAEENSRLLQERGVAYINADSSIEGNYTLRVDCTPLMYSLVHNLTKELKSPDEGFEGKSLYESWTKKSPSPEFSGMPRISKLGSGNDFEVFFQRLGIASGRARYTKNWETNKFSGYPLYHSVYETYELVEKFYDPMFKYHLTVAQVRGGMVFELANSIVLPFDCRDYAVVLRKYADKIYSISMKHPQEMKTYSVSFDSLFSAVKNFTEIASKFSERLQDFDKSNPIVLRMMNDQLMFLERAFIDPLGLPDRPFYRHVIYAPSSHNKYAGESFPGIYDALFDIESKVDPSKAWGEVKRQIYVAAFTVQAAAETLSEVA
UniProt Q04609, whole entry: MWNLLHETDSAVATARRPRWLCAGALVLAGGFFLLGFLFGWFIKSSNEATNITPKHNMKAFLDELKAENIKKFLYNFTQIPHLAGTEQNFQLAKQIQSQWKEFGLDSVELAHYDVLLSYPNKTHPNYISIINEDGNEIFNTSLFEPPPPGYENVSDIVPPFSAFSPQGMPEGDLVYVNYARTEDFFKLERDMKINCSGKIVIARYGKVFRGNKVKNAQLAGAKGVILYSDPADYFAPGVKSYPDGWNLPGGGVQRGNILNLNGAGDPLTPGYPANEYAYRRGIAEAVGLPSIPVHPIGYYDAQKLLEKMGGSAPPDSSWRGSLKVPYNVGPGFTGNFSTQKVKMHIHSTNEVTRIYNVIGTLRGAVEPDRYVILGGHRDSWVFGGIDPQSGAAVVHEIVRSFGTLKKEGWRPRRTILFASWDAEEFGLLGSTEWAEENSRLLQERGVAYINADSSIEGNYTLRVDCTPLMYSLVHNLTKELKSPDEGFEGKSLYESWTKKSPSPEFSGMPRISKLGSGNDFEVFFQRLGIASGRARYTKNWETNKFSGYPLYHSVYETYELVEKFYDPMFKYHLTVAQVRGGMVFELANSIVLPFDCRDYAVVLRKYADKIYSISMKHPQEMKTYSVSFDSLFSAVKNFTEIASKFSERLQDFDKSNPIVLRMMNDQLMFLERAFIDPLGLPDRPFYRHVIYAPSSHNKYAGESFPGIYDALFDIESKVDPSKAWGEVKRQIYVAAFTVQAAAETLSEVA

PSMA [2] = biological target: T2, PSMA (Homo sapiens, UniProt Q04609); experiment: Inhibition of folate hydrolase activity of PSMA, PSMA positive membrane preparations, substrate MTXGlu2, HPLC; assay type: biochemical; design: host or cells: PSMA positive membrane preparations; conditions: read-out: IC50 as folate hydrolase inhibitor, 1 h
Method: (§1) Described herein are new compounds, which can activate RNase L in PSMA expressing cells. 2-5A was targeted for delivery to PSMA by linking it with a ligand to PSMA. We modified ZJ24, a low molecular weight ligand for PSMA, with 2-5A through a 4-(N-maleimidomethyl)cyclohexane-1-amidate linkage to generate RBI 1033. The inhibitory activity of RBI 1033 to the folate hydrolase activity of PSMA was measured. The PSMA positive membrane preparations were incubated with different concentrations of ZJ24, RBI 1033 and RBI 1032 (2-5A with linker only) together with the substrate methotrexate diglutamate (MTXGlu2) for 1 h. The amount of methotrexate and MTXGlu2 were then determined by HPLC. […] Binding studies were performed by incubating membranes with different concentrations of drugs in the presence of 12 nM of ^3H-ZJ24 for 30 min. […] These studies indicate that RBI 1033 has excellent binding properties to PSMA, which can enable it to serve as a vector for imaging or therapy.

PSMA [3] = biological target: T2, PSMA; experiment: Inhibition of 3H-ZJ24 binding to cell membranes; design: host or cells: PSMA positive membrane preparations; conditions: read-out: IC50 for inhibition of binding of 3H-ZJ24 to the cell membrane; 12 nM 3H-ZJ24, 30 min
Method: as §1

PSMA [4] = biological target: T2, PSMA; experiment: PSMA activity assay, hydrolysis of polyglutamate substrate MTXGlu2; assay type: biochemical; design: Recombinant protein of the extracellular domain of PSMA can also exist in readily inter-convertible dimer-monomer forms; conditions: read-out: EC50 for inhibition of PSMA activity; 5 ng recombinant PSMA, MTXGlu2 5 nMol, 37° C, 1 h
Method: The activity assay determines the ability of hPSMA to cleave/hydrolyze a polyglutamte substrate under the presence of a ligand at different concentrations. Briefly, recombinant PSMA (5 ng) was incubated with ZJ24 or disclosed 2-5A ligand. After 30 min the polyglutamate substrate MTXGlu2 (5 nMol) was added and the mixture was incubated at 37° C. for 1 h. The reaction was stopped by the addition of 100 μL of 50 mM Na2HPO4. The amount of MTX formed was analyzed using a Thermo Hypersil PRISM RP column (50×4.6 mm, flow rate 1.0 mL/min) at 313 nm.

Molecule `Nc1ncnc2c1ncn2[C@@H]1O[C@H](COP(O)(O)=S)[C@@H](O)[C@H]1OP(O)(=S)OC[C@H]1O[C@@H](n2cnc3c(N)ncnc32)[C@H](OP(O)(=S)OC[C@H]2O[C@@H](n3cnc4c(N)ncnc43)[C@H](OP(O)(=S)OCCCNC(=O)C3CCC(CN4C(=O)CC(SC[C@H](NC(=O)N[C@@H](CCC(=O)O)C(=O)O)C(=O)O)C4=O)CC3)[C@@H]2O)[C@@H]1O` (stereo partly shown) [RBI 1033] has an EC50 [1] of 1.5 nM, an IC50 (PSMA [2]) of 4.78 nM and an IC50 (PSMA [3]) of 1.5 nM. The EC50 (PSMA [4]) was 0.62 nM.
